Data: patent US4500707A, “Nucleosides useful in the preparation of polynucleotides” (University Patents, Inc., priority 1982, dated 1985)

Test: Color of trityl cations of triarylmethyl alcohols, tlc plates exposed to hydrochloric acid vapor (Table V)
Format: physicochemical
Settings: for Color: triarylmethyl alcohol, tlc, hydrochloric acid vapor

## Cc1ccc(C(O)(c2ccccc2)c2ccc(F)cc2)cc1 (stereo not drawn) [R1 = a; R2 = e; R3 = h]
  Color: Yellow

## OC(c1ccccc1)(c1ccccc1)c1ccccc1Cl [R1 = R2 = a; R3 = j]
  Color: Yellow

## COc1ccccc1C(O)(c1ccccc1)c1ccc([N+](=O)[O-])cc1 (stereo not drawn) [R1 = b; R2 = a; R3 = i]
  Color: Red

## COc1ccc(C(O)(c2ccc(OC)cc2)c2cccc3ccccc23)cc1 [R1 = R2 = c; R3 = n]
  Color: Violet

## O=[N+]([O-])c1ccc(C(O)(c2ccccc2)c2ccccc2[N+](=O)[O-])cc1 (stereo not drawn) [R1 = f; R2 = a; R3 = i]
  Color: Yellow

## COc1cccc(C(O)(c2cccc(OC)c2)c2ccco2)c1 [R1 = R2 = d; R3 = m]
  Color: Yellow

## OC(c1ccc(F)cc1)(c1ccc(F)cc1)c1ccco1 [R1 = R2 = e; R3 = m]
  Color: Yellow

## COc1ccc(C(O)(c2ccc(OC)cc2)c2ccco2)cc1 [R1 = R2 = c; R3 = m]
  Color: Yellow

## OC(c1ccccc1)(c1ccc(Cl)cc1)c1cccc2ccccc12 (stereo not drawn) [R1 = n; R2 = g; R3 = a]
  Color: Green

## CC(C)(C)c1ccc(C(O)(c2ccc(F)cc2)c2ccc(F)cc2)cc1 [R1 = R2 = e; R3 = k]
  Color: Yellow-Orange

## COc1ccc(C(O)(c2ccccc2)c2ccc(-c3ccccc3)cc2)cc1 (stereo not drawn) [R1 = c; R2 = p; R3 = a]
  Color: Red-Orange

## COc1ccc(C(O)(c2ccc(Cl)cc2)c2ccc(Cl)cc2)cc1 [R1 = R2 = g; R3 = c]
  Color: Red-Orange

## OC(c1ccccc1)(c1ccc(Cl)cc1)c1ccccc1Cl (stereo not drawn) [R1 = g; R2 = a; R3 = j]
  Color: Yellow

## COc1ccc(C(O)(c2ccc(-c3ccccc3)cc2)c2ccc(-c3ccccc3)cc2)cc1 [R1 = R2 = p; R3 = c]
  Color: Red

## OC(c1ccccc1)(c1ccc(Cl)cc1)c1ccc(Br)cc1 (stereo not drawn) [R1 = g; R2 = l; R3 = a]
  Color: Yellow

## O=[N+]([O-])c1ccc(C(O)(c2ccccc2)c2ccc(Cl)cc2)cc1 (stereo not drawn) [R1 = g; R2 = a; R3 = i]
  Color: Deep Red

## OC(c1ccc(Cl)cc1)(c1ccc(Cl)cc1)c1ccco1 [R1 = R2 = g; R3 = m]
  Color: Yellow-Orange

## COc1ccc(C(O)(c2ccccc2)c2ccccc2Cl)cc1 (stereo not drawn) [R1 = c; R2 = a; R3 = j]
  Color: Deep Burnt Orange
Listed as R1 = c, R2 = j, R3 = a
  Color: Yellow-Orange

## O=[N+]([O-])c1ccccc1C(O)(c1ccccc1)c1ccccc1 [R1 = f; R2 = R3 = a]
  Color: Yellow

## OC(c1ccc(Cl)cc1)(c1ccc(Cl)cc1)c1cccc2ccccc12 [R1 = n; R2 = R3 = g]
  Color: Green

## OC(c1ccccc1)(c1ccccc1)c1ccc(F)cc1 [R1 = e; R2 = R3 = a]
  Color: Orange

## O=[N+]([O-])c1ccc(C(O)(c2ccccc2)c2ccccc2)cc1 [R1 = R2 = a; R3 = i]
  Color: Red-Violet

## OC(c1ccccc1)(c1ccccc1)c1ccccc1 [R1 = R2 = R3 = a]
  Color: Yellow

## COc1ccc(C(O)(c2ccc(OC)cc2)c2ccc(-c3ccccc3)cc2)cc1 [R1 = R2 = c; R3 = p]
  Color: Purple

## COc1ccc(C(O)(c2ccc(OC)cc2)c2ccc3ccccc3c2)cc1 [R1 = R2 = c; R3 = o]
  Color: Burnt-Orange

## Cc1ccc(C(O)(c2ccccc2)c2ccccc2Cl)cc1 (stereo not drawn) [R1 = h; R2 = j; R3 = a]
  Color: Canary Yellow

## COc1ccccc1C(O)(c1ccc(-c2ccccc2)cc1)c1ccccc1OC [R1 = R2 = b; R3 = p]
  Color: Purple

## OC(c1ccccc1)(c1ccccc1)c1cncnc1 [R1 = R2 = a; R3 = r]
  Color: Colorless

## COc1ccc(C(O)(c2ccccc2)c2cccc3ccccc23)cc1 (stereo not drawn) [R1 = a; R2 = c; R3 = n]
  Color: Red

## OC(c1ccc(-c2ccccc2)cc1)(c1ccc(-c2ccccc2)cc1)c1cccc2ccccc12 [R1 = R2 = p; R3 = n]
  Color: Deep Purple

## CC(C)(C)c1ccc(C(O)(c2ccccc2[N+](=O)[O-])c2ccccc2[N+](=O)[O-])cc1 [R1 = R2 = f; R3 = k]
  Color: Yellow

## COc1cccc(C(O)(c2ccccc2)c2ccccc2)c1 [R1 = R2 = a; R3 = d]
  Color: Yellow

## COc1ccc(C(O)(c2ccccc2)c2ccc(Cl)cc2)cc1 (stereo not drawn) [R1 = c; R2 = g; R3 = a]
  Color: Yellow-Orange

## CC(C)(C)c1ccc(C(O)(c2ccc(Cl)cc2)c2ccc(Cl)cc2)cc1 [R1 = R2 = g; R3 = k]
  Color: Yellow

## COc1ccc(C(O)(c2ccccc2)c2ccc(Br)cc2)cc1 (stereo not drawn) [R1 = c; R2 = l; R3 = a]
  Color: Yellow Orange

## OC(c1ccccc1)(c1ccc(-c2ccccc2)cc1)c1ccccc1Cl (stereo not drawn) [R1 = p; R2 = a; R3 = j]
  Color: Colorless

## OC(c1ccccc1)(c1ccc(F)cc1)c1cccc2ccccc12 (stereo not drawn) [R1 = a; R2 = e; R3 = n]
  Color: Green

## OC(c1ccccc1)(c1ccccc1)c1ccc(Cl)cc1 [R1 = g; R2 = R3 = a]
  Color: Yellow

## COc1ccccc1C(O)(c1ccccc1OC)c1cccc2ccccc12 [R1 = R2 = b; R3 = n]
  Color: Blue

## COc1ccccc1C(O)(c1ccccc1)c1ccccc1 [R1 = R2 = a; R3 = b]
  Color: Yellow

## O=[N+]([O-])c1ccccc1C(O)(c1ccco1)c1ccccc1[N+](=O)[O-] [R1 = R2 = f; R3 = m]
  Color: Colorless

## COc1cccc(C(O)(c2ccccc2)c2ccccc2Cl)c1 (stereo not drawn) [R1 = d; R2 = a; R3 = j]
  Color: Carmine

## O=[N+]([O-])c1ccccc1C(O)(c1ccccc1)c1ccccc1Cl (stereo not drawn) [R1 = f; R2 = a; R3 = j]
  Color: Yellow

## O=[N+]([O-])c1ccc(C(O)(c2ccccc2)c2ccc(-c3ccccc3)cc2)cc1 (stereo not drawn) [R1 = p; R2 = a; R3 = i]
  Color: Yellow

## OC(c1ccccc1)(c1cncnc1)c1cncnc1 [R1 = R2 = r; R3 = a]
  Color: Colorless

## OC(c1ccc(Cl)cc1)(c1ccc(Cl)cc1)c1ccc(Cl)cc1 [R1 = R2 = R3 = g]
  Color: Yellow

## COc1ccc(C(O)(c2ccccc2)c2cnc3ccccc3c2)cc1 (stereo not drawn) [R1 = c; R2 = q; R3 = a]
  Color: Colorless

## COc1cccc(C(O)(c2ccccc2)c2ccc([N+](=O)[O-])cc2)c1 (stereo not drawn) [R1 = d; R2 = a; R3 = i]
  Color: Burnt-Orange

## O=[N+]([O-])c1ccc(C(O)(c2ccccc2)c2ccc(F)cc2)cc1 (stereo not drawn) [R1 = e; R2 = a; R3 = i]
  Color: Red-Violet

## OC(c1ccccc1)(c1ccc(Br)cc1)c1cccc2ccccc12 (stereo not drawn) [R1 = n; R2 = l; R3 = a]
  Color: Green

## COc1ccccc1C(O)(c1ccccc1)c1ccccc1OC [R1 = R2 = b; R3 = a]
  Color: Black

## OC(c1ccccc1)(c1ccccc1)c1ccco1 [R1 = R2 = a; R3 = m]
  Color: Colorless

## Cc1ccc(C(O)(c2ccccc2)c2ccccc2)cc1 [R1 = h; R2 = R3 = a]
  Color: Yellow

## COc1ccc(C(O)(c2ccccc2)c2cccc(OC)c2)cc1 (stereo not drawn) [R1 = c; R2 = d; R3 = a]
  Color: Orange

## Cc1ccc(C(O)(c2ccc(Cl)cc2)c2ccc(Cl)cc2)cc1 [R1 = h; R2 = R3 = g]
  Color: Canary Yellow

## OC(c1ccccc1)(c1ccc(F)cc1)c1ccc(Cl)cc1 (stereo not drawn) [R1 = a; R2 = e; R3 = g]
  Color: Yellow

## COc1ccc(C(O)(c2ccc(F)cc2)c2ccc(F)cc2)cc1 [R1 = R2 = e; R3 = c]
  Color: Red-Orange

## COc1ccc(C(O)(c2ccccc2)c2cncnc2)cc1 (stereo not drawn) [R1 = c; R2 = r; R3 = a]
  Color: Colorless

## COc1cccc(C(O)(c2ccc(C(C)(C)C)cc2)c2cccc(OC)c2)c1 [R1 = R2 = d; R3 = k]
  Color: Yellow

## COc1ccc(C(O)(c2ccc(OC)cc2)c2ccc(C(C)(C)C)cc2)cc1 [R1 = R2 = c; R3 = k]
  Color: Orange

## COc1ccc(C(O)(c2ccccc2)c2ccc(F)cc2)cc1 (stereo not drawn) [R1 = a; R2 = e; R3 = c]
  Color: Yellow-Orange

## Cc1ccc(C(O)(c2ccccc2)c2ccc(Br)cc2)cc1 (stereo not drawn) [R1 = h; R2 = l; R3 = a]
  Color: Canary Yellow

## Cc1ccc(C(O)(c2ccccc2)c2ccc(Cl)cc2)cc1 (stereo not drawn) [R1 = h; R2 = g; R3 = a]
  Color: Canary Yellow

## OC(c1ccccc1)(c1ccccc1)c1ccc(-c2ccccc2)cc1 [R1 = p; R2 = R3 = a]
  Color: Yellow

## OC(c1ccccc1)(c1ccc(Cl)cc1)c1ccc(Cl)cc1 [R1 = R2 = g; R3 = a]
  Color: Yellow

## COc1ccc(C(O)(c2ccccc2)c2ccccc2OC)cc1 (stereo not drawn) [R1 = c; R2 = b; R3 = a]
  Color: Red

## COc1ccc(C(O)(c2ccccc2[N+](=O)[O-])c2ccccc2[N+](=O)[O-])cc1 [R1 = R2 = f; R3 = c]
  Color: Yellow

## CC(C)(C)c1ccc(C(O)(c2ccc(-c3ccccc3)cc2)c2ccc(-c3ccccc3)cc2)cc1 [R1 = R2 = p; R3 = k]
  Color: Colorless

## OC(c1ccccc1)(c1ccccc1)c1cccc2ccccc12 [R1 = n; R2 = R3 = a]
  Color: Green

## OC(c1ccc(-c2ccccc2)cc1)(c1ccc(-c2ccccc2)cc1)c1ccco1 [R1 = R2 = p; R3 = m]
  Color: Peach

## COc1ccc(C(O)(c2cccc(OC)c2)c2cccc(OC)c2)cc1 [R1 = R2 = d; R3 = c]
  Color: Red

## COc1ccc(C(O)(c2ccccc2)c2ccc(OC)cc2)cc1 [R1 = R2 = c; R3 = a]
ZnBr2, group removed from the oligonucleotide
  color with ZnBr2: orange
  Color: Orange

## COc1ccccc1C(O)(c1ccc(Cl)cc1)c1ccc(Cl)cc1 [R1 = b; R2 = R3 = g]
  Color: Yellow

## CC(C)(C)c1ccc(C(O)(c2ccccc2)c2ccccc2)cc1 [R1 = R2 = a; R3 = k]
  Color: Yellow

## COc1ccccc1C(O)(c1ccccc1)c1ccc(Cl)cc1 (stereo not drawn) [R1 = b; R2 = g; R3 = a]
  Color: Yellow

## OC(c1ccccc1)(c1ccccc1)c1cnc2ccccc2c1 [R1 = R2 = a; R3 = q]
  Color: Colorless

## COc1ccccc1C(O)(c1ccco1)c1ccccc1OC [R1 = R2 = b; R3 = m]
  Color: Lilac

## COc1ccc(C(O)(c2ccccc2)c2ccc([N+](=O)[O-])cc2)cc1 (stereo not drawn) [R1 = c; R2 = a; R3 = i]
  Color: Deep Purple

## COc1ccc(C(O)(c2ccccc2)c2ccccc2)cc1 [R1 = R2 = a; R3 = c]
  Color: Yellow-Orange
